The target in assay [1] is human CD137 ECD-mIgG2a (human). The assay is described as follows: ELISA on coated human CD137 ECD-mIgG2a, detection with HRP anti-human IgG (competition ELISA with CD137 ligand). For orientation: An ELISA detects its analyte on a solid surface through an enzyme-linked reagent.
Assay [2] has as its target human CD137 ectodomain (amino acids 24-162; C121S, N138D, N149Q) for crystallization (human) (UniProt Q07011). The assay is described as follows: complex formed from purified proteins, purified by gel filtration and crystallized. For orientation: SEC sorts molecules by how far they enter the pores of the column.

Amino acid sequences for entries named in this document (tags omitted). A change or cut given only in a name is not applied to a line headed by its entry.
UniProt Q07011: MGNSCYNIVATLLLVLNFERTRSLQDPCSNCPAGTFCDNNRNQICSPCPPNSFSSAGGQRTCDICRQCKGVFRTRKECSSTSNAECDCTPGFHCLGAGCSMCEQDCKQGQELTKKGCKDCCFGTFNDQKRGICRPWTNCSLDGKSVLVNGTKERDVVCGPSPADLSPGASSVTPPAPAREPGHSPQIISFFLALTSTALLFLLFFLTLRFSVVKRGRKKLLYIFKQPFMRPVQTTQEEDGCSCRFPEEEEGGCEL

Consider two molecules from patent publication US20240209106A1.

No constants are given. Whether binding was seen depends on the method and setting. Some entries that bind do so weakly or less than the wild type.

B1: BGA-5623 (IgG4) (Fc fusion)
chain: EVQLLESGGGLVQPGGSLRLSCAASGFTVSAEDVGWVRQAPGKGLEWVSAILDKGGSTYYAESVKGRFTISRDNAKNTLYLQMSSLRAEDTAVYYCARIVYHAGGGVTFDTRGQGTQVTVSSESKYGPPCPPCPAPEFLGGPSVFLFPPKPKDTLMISRTPEVTCVVVDVSQEDPEVQFNWYVDGVEVHNAKTKPREEQFNSTYRWSVLTVLHQDWLNGKEYKCKVSNKGLPSSIEKTISKAKGQPREPQVYTLPPSQEEMTKNQVSLTCLVKGFYPSDIAVEWESNGQPENNYKTTPPVLDSDGSFFLYSRLTVDKSRWQEGNVFSCSVMHEALHNHYTQKSLSLSLGK
As for B1, the binding entry in assay [1] is given as “binds”.

B2: VHH (BGA-5623) (VHH)
VHH: EVQLLESGGGLVQPGGSLRLSCAASGFTVSAEDVGWVRQAPGKGLEWVSAILDKGGSTYYAESVKGRFTISRDNAKNTLYLQMSSLRAEDTAVYYCARIVYHAGGGVTFDTRGQGTQVTVSS
In the case of B2, in assay [2], the binding result is on record as “binds”.
